Assay results reported in US4882313A (SmithKline Beckman Corporation, priority 1987, dated 1989).

Test: general procedure: peptide synthesis; isobutyl chloroformate
Settings: late stage modification step

Row | Substance | step yield [%]
1 | Ardacin aglycone-(2-N--methylaminoethyl amide) | 30
2 | Ardacin aglycone-(2-N,N--dimethylaminoethyl amide) | 48.5
